Experimental data published in the supplement of paper PMC10849652.
The other results are listed elsewhere or left out.

Chains of the proteins cited; added tags and fusions are not shown. Lines headed by an entry give the natural chain unless they say otherwise; changes in a name come on top.
UniProt Q8NEC7: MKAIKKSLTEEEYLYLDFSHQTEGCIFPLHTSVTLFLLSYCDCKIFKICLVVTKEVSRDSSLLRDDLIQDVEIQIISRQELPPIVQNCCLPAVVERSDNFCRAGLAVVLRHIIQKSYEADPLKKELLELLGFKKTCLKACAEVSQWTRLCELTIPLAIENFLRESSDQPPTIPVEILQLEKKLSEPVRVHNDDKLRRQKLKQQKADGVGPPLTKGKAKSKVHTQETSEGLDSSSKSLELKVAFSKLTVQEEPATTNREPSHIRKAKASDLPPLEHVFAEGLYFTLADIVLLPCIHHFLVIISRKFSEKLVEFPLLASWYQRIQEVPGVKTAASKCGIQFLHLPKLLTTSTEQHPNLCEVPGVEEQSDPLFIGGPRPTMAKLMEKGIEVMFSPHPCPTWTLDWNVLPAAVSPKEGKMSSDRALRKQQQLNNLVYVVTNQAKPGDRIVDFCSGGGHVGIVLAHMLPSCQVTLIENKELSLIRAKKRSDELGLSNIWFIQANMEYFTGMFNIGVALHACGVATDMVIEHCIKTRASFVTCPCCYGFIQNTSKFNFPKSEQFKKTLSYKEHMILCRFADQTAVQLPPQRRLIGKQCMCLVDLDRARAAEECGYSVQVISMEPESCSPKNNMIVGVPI
UniProt O00165, whole entry, looked up: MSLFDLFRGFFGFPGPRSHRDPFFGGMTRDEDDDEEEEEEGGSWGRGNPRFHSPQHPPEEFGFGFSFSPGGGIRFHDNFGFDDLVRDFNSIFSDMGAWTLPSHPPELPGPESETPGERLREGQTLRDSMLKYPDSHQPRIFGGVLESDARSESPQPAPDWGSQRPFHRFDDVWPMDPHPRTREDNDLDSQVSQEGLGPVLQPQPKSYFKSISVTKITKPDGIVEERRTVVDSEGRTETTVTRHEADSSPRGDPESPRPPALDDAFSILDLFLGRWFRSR
UniProt O14929: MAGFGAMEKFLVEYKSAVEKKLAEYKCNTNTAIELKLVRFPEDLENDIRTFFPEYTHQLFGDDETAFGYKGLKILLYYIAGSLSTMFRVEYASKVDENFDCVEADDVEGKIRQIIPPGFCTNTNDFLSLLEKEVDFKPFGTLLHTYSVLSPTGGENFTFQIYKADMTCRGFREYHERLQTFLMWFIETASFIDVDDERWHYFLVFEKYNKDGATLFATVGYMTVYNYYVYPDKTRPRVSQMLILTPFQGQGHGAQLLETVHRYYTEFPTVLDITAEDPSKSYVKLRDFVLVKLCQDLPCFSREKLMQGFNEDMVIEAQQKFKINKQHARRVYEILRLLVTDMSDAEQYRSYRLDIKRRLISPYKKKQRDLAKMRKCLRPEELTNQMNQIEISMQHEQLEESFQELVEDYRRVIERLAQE
UniProt Q7Z4V5: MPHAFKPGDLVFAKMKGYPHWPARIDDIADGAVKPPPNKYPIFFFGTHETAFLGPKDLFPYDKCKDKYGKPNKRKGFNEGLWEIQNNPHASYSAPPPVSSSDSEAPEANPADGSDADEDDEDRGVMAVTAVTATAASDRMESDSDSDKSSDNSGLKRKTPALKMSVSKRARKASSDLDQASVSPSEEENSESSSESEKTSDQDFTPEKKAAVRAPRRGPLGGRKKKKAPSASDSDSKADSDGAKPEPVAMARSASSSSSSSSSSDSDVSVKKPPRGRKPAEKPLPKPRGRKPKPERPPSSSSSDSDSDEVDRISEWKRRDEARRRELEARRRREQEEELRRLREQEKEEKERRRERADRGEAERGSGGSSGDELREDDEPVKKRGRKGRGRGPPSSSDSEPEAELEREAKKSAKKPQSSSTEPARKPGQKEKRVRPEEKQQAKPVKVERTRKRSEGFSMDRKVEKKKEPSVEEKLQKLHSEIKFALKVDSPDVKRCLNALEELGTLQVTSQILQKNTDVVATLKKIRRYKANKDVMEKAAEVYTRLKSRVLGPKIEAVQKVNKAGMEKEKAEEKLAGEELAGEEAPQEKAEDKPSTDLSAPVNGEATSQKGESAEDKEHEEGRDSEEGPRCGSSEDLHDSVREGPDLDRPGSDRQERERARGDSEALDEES
UniProt Q9Y450, whole entry, looked up: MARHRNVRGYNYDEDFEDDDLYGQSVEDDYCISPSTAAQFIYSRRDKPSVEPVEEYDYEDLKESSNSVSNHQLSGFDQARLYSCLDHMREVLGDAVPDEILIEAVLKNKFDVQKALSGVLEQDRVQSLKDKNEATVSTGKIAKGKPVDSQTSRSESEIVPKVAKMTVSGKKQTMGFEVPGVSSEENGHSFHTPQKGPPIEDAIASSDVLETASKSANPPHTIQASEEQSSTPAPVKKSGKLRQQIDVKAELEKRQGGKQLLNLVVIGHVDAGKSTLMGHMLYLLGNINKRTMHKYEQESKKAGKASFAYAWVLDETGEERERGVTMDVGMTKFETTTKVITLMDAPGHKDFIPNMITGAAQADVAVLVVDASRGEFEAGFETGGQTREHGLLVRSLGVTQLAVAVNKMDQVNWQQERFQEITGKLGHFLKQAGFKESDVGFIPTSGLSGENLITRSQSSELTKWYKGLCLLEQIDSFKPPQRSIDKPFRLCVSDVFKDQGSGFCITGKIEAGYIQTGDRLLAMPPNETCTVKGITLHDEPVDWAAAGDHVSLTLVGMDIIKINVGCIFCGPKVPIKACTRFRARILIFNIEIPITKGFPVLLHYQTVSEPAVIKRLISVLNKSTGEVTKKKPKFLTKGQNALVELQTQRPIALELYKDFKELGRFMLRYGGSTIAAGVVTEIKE
UniProt Q9P035: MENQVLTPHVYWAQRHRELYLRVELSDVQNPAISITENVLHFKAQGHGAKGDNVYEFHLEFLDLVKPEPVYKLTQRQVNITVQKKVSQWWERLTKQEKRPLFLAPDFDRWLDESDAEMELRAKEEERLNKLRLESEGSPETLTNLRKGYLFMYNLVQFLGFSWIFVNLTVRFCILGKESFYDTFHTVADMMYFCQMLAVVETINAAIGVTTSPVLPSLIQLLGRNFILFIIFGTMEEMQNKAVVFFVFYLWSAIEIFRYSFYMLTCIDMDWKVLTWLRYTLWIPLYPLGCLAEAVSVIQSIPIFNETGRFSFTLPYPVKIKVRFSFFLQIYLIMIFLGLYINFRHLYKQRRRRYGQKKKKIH
UniProt P30711: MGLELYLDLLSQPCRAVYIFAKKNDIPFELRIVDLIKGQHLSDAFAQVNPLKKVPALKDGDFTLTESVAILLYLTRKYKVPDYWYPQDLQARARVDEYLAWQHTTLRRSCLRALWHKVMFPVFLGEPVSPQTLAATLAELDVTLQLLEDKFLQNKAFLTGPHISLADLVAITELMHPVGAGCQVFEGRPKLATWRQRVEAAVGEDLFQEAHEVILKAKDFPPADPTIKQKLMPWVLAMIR
UniProt Q9Y5Q9: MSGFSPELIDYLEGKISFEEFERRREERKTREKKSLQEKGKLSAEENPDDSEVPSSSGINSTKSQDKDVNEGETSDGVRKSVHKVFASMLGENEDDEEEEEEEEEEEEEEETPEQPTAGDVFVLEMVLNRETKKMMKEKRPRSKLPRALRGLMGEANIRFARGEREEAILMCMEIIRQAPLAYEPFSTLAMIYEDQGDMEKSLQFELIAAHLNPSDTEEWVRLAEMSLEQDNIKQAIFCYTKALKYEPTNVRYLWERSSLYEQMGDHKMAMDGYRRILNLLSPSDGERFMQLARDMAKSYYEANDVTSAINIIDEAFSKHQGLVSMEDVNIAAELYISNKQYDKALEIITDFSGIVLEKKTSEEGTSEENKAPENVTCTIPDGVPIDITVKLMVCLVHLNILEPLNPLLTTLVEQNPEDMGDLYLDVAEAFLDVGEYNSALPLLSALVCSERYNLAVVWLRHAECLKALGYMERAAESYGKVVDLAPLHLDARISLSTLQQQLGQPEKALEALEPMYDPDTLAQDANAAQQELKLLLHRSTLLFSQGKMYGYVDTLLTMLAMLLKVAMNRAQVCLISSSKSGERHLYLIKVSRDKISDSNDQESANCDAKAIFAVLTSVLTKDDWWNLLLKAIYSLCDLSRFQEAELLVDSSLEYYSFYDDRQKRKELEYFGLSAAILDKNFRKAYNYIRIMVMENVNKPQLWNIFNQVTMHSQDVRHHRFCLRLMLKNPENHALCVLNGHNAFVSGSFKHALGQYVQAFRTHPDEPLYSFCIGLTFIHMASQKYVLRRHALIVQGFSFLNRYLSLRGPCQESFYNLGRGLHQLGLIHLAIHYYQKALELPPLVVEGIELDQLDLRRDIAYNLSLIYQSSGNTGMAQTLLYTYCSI
UniProt Q9P2D3: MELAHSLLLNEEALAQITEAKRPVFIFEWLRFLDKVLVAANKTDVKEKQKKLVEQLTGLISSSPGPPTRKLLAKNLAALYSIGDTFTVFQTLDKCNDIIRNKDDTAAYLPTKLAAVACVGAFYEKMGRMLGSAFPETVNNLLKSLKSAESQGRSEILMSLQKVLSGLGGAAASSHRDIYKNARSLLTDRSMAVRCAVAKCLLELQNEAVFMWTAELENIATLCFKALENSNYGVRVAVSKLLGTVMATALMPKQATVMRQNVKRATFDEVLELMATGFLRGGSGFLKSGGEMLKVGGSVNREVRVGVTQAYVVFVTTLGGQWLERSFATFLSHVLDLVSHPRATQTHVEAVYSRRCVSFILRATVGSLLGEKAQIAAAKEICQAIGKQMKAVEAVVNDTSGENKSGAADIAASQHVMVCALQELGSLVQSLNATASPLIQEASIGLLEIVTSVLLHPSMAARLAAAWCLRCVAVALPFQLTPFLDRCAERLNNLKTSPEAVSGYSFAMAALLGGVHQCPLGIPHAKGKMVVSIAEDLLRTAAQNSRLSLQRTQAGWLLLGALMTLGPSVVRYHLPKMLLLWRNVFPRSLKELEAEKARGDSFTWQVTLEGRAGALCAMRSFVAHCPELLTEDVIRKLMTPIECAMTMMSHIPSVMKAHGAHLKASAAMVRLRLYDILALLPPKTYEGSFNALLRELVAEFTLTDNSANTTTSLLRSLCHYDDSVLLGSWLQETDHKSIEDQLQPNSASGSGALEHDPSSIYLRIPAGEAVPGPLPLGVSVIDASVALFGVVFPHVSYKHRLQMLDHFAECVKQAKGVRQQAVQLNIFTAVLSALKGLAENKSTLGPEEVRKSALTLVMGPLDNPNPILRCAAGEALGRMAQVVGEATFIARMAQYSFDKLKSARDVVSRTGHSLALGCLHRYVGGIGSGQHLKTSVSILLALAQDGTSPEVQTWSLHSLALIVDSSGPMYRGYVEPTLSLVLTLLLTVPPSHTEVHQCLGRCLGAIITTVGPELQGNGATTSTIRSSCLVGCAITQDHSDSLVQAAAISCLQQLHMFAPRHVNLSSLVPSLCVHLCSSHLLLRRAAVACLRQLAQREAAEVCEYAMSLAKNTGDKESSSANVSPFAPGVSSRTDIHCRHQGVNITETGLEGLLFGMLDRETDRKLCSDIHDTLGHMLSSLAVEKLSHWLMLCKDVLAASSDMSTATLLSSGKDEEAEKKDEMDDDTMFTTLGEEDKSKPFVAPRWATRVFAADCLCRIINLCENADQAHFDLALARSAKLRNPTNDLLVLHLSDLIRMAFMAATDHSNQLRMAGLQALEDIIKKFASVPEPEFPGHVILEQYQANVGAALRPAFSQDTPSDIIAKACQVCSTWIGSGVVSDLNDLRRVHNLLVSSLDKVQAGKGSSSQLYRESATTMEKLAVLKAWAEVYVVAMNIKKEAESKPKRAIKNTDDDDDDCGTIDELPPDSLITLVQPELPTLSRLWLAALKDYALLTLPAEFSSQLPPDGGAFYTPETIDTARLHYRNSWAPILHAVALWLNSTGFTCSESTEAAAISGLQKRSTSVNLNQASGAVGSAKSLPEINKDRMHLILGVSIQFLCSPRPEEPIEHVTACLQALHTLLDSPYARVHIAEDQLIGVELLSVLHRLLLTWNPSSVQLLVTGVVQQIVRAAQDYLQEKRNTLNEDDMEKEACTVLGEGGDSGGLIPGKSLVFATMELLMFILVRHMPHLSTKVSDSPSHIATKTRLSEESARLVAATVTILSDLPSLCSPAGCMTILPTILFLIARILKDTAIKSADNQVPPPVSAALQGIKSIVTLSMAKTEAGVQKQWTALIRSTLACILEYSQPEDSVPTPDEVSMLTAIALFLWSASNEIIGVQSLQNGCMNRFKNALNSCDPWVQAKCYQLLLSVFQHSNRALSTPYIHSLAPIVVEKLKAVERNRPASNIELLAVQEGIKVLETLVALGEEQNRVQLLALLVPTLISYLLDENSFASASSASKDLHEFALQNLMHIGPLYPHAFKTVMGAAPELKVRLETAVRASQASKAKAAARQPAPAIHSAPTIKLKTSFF
UniProt P13984, whole entry, looked up: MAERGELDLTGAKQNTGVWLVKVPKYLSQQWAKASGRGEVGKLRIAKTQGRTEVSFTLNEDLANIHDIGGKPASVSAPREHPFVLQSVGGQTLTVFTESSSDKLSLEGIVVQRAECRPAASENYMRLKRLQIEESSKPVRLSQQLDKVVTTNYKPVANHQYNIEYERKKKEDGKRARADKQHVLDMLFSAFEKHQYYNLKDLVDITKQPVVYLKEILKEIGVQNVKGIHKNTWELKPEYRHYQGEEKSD

Assays:
Assay in all cases: log2 fold change, soluble protein after heating vs DMSO (PISA); higher = thermal stabilisation; K562 lysate, 10 uM; active = over 0.2 and 3.5 SD of the protein, either way, in both replicates (recomputed)
alvocidib = compound: CN1CC[C@H](c2c(O)cc(O)c3c(=O)cc(-c4ccccc4Cl)oc23)[C@H](O)C1 [alvocidib]
Procedure, shortened: (§1)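 Soluble protein was defined as the supernatant remaining after 21,000xg for 90 min, following pooling of heated aliquots and adjustment to 0.5% NP-40 at 4°C. Before that, crude K562 extract at 1 mg/mL protein in PBS pH 7.4 with 1 mM MgCl2 was treated with 10 μM compound for 30 min and heated for 3 min across 48°C-58°C. Quantification used TMTpro 16plex LC-MS/MS with channel sums equalised, and values are log-two fold changes in thermal stability relative to solvent controls from duplicates.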

Tubastatin A = compound: CN1CCc2c(c3ccccc3n2Cc2ccc(C(=O)NO)cc2)C1 [Tubastatin A]
Procedure, shortened: as §1

[1] = compound: CNC(=O)C1=CC=CC=C1NC2=NC(=NC=C2Cl)NC3=C(C=C(C=C3)N4CCOCC4)OC
Procedure, shortened: as §1

defactinib = compound: CNC(=O)c1ccc(Nc2ncc(C(F)(F)F)c(NCc3nccnc3N(C)S(C)(=O)=O)n2)cc1 [defactinib]
Procedure, shortened: as §1

[2] = compound: CNc1nc(-c2ccc3c(N)n[nH]c3c2)cc(N2C[C@@H](C(=O)NC3CCCCC3)CC[C@H]2C)n1
Procedure, shortened: as §1

encorafenib = compound: COC(=O)N[C@@H](C)CNc1nccc(-c2cn(C(C)C)nc2-c2cc(Cl)cc(NS(C)(=O)=O)c2F)n1 [encorafenib]
Procedure, shortened: as §1

[3] = compound: COC(=O)[C@H](CCSC)NC(=O)C1=C(C=C(C=C1)NC[C@H](CS)N)C2=CC=CC=C2
Procedure, shortened: as §1

alisertib = compound: COc1cc(Nc2ncc3c(n2)-c2ccc(Cl)cc2C(c2c(F)cccc2OC)=NC3)ccc1C(=O)O [alisertib]
Procedure, shortened: as §1

[4] = compound: COc1cc2nc(-c3cc(F)ccc3O)nc(N[C@@H]3CNC[C@H]3C(C)(C)O)c2cc1OC
Procedure, shortened: as §1

gefitinib = compound: COc1cc2ncnc(Nc3ccc(F)c(Cl)c3)c2cc1OCCCN1CCOCC1 [gefitinib]
Procedure, shortened: as §1

Measured: log2 fold change

HDHD3 (UniProt Q9BSH5)
inactive: alvocidib 0 | Tubastatin A -0.015 | [1] 0.046 | defactinib 0.003 | [2] -0.016 | encorafenib 0.024 | [3] -0.055 | alisertib 0.033 | [4] 0.001 | gefitinib -0.031

GTF3C5 isoform 3 (UniProt Q9Y5Q8)
inactive: alvocidib -0.005 | Tubastatin A -0.166 | [1] 0.029 | defactinib 0.014 | [2] -0.012 | encorafenib 0.01 | [3] 0.153 | alisertib 0.004 | [4] 0.001 | gefitinib -0.004

GTF3C6 (UniProt Q969F1)
inactive: alvocidib -0.031 | Tubastatin A -0.087 | [1] -0.006 | defactinib 0.046 | [2] -0.031 | encorafenib 0.053 | [3] 0.013 | alisertib 0.014 | [4] 0.045 | gefitinib 0.054

GSTM2 (UniProt P28161)
inactive: alvocidib 0.079 | Tubastatin A 0.045 | [1] 0.009 | defactinib 0.036 | [2] -0.016 | encorafenib -0.024 | [3] 0.068 | alisertib 0.01 | [4] -0.015 | gefitinib 0.034

GSTCD (UniProt Q8NEC7)
inactive: alvocidib 0.03 | Tubastatin A -0.13 | [1] 0.055 | defactinib -0.002 | [2] -0.013 | encorafenib 0.052 | [3] 0.138 | alisertib -0.068 | [4] 0.002 | gefitinib 0

HAX1 (UniProt O00165)
inactive: alvocidib 0.019 | Tubastatin A -0.103 | [1] 0.074 | defactinib -0.002 | [2] -0.022 | encorafenib 0.027 | [3] 0.128 | alisertib 0.008 | [4] -0.031 | gefitinib -0.014

HAT1 (UniProt O14929)
inactive: alvocidib -0.027 | Tubastatin A -0.043 | [1] -0.011 | defactinib 0.027 | [2] 0.008 | encorafenib 0.008 | [3] 0.029 | alisertib -0.018 | [4] 0.012 | gefitinib 0.014

HDHD5 (UniProt Q9BXW7)
inactive: alvocidib -0.097 | Tubastatin A -0.078 | [1] 0.041 | defactinib -0.069 | [2] 0.034 | encorafenib 0.026 | [3] 0.024 | alisertib 0.031 | [4] 0.012 | gefitinib -0.063

HDGFL2 isoform 2 (UniProt Q7Z4V5)
inactive: alvocidib -0.155 | Tubastatin A 0.011 | [1] 0.013 | defactinib -0.008 | [2] 0.016 | encorafenib -0.004 | [3] -0.065 | alisertib -0.029 | [4] 0 | gefitinib 0.03

HBG2 (UniProt P69892)
inactive: alvocidib 0.087 | Tubastatin A 0.044 | [1] 0.015 | defactinib 0.117 | [2] 0.062 | encorafenib 0.021 | [3] -0.026 | alisertib 0 | [4] 0 | gefitinib -0.079

HBS1L (UniProt Q9Y450)
inactive: alvocidib -0.03 | Tubastatin A -0.114 | [1] 0.037 | defactinib -0.018 | [2] -0.009 | encorafenib 0.012 | [3] 0.107 | alisertib 0.019 | [4] -0.01 | gefitinib -0.018

HACD3 (UniProt Q9P035)
inactive: alvocidib 0.026 | Tubastatin A -0.001 | [1] -0.028 | defactinib 0.055 | [2] -0.01 | encorafenib 0.006 | [3] -0.031 | alisertib 0.032 | [4] -0.123 | gefitinib -0.002

HEATR5A (UniProt Q86XA9)
inactive: alvocidib -0.005 | Tubastatin A -0.043 | [1] 0.011 | defactinib -0.065 | [2] 0.016 | encorafenib 0.032 | [3] -0.057 | alisertib -0.026 | [4] 0.004 | gefitinib 0.002

HCLS1 (UniProt P14317)
inactive: alvocidib 0.022 | Tubastatin A 0.037 | [1] -0.015 | defactinib 0.001 | [2] 0.01 | encorafenib 0.009 | [3] -0.039 | alisertib 0.001 | [4] 0.005 | gefitinib -0.002

H2AFY (UniProt O75367)
inactive: alvocidib -0.034 | Tubastatin A 0.079 | [1] -0.026 | defactinib 0.106 | encorafenib 0.094 | [3] 0.014 | alisertib 0.001 | [4] 0 | gefitinib 0
active: [2] 0.329

GSN (UniProt P06396)
inactive: alvocidib -0.007 | Tubastatin A -0.011 | [1] -0.002 | defactinib 0.014 | [2] 0.089 | encorafenib -0.057 | [3] 0.073 | alisertib 0.006 | [4] -0.029 | gefitinib -0.001

HAUS6 (UniProt Q7Z4H7)
inactive: alvocidib -0.043 | Tubastatin A -0.084 | [1] 0.008 | defactinib 0.031 | [2] -0.004 | encorafenib 0.031 | [3] -0.025 | alisertib 0.03 | [4] 0.019 | gefitinib 0.017

GSTT1 (UniProt P30711)
inactive: alvocidib 0.017 | Tubastatin A 0.073 | [1] -0.003 | defactinib 0.022 | [2] 0.04 | encorafenib 0.021 | [3] -0.031 | alisertib 0 | [4] -0.035 | gefitinib -0.041

GTF3C3 (UniProt Q9Y5Q9)
inactive: alvocidib -0.018 | Tubastatin A -0.147 | [1] 0.043 | defactinib -0.007 | [2] 0.04 | encorafenib -0.001 | [3] 0.065 | alisertib -0.006 | [4] 0.02 | gefitinib -0.006

GUSB (UniProt P08236)
inactive: alvocidib -0.278 | Tubastatin A 0.022 | [1] 0.017 | defactinib 0.015 | [2] -0.027 | encorafenib 0.089 | [3] -0.019 | alisertib 0.089 | [4] 0.071 | gefitinib -0.049

GRIPAP1 (UniProt Q4V328)
inactive: alvocidib 0.015 | Tubastatin A 0.026 | [1] 0.023 | defactinib 0.004 | [2] 0.007 | encorafenib 0.005 | [3] -0.056 | alisertib 0.011 | [4] -0.013 | gefitinib -0.006

HBE1 (UniProt P02100)
inactive: alvocidib 0.067 | Tubastatin A 0.084 | [1] 0.026 | defactinib 0.091 | [2] 0.022 | encorafenib 0.004 | [3] -0.089 | alisertib 0.02 | [4] -0.017 | gefitinib -0.145

GRB2 (UniProt P62993)
inactive: alvocidib 0.006 | Tubastatin A -0.002 | [1] -0.013 | defactinib 0.006 | [2] 0.012 | encorafenib -0.003 | [3] -0.049 | alisertib 0.015 | [4] -0.004 | gefitinib 0.008

GTF2E2 (UniProt P29084)
inactive: alvocidib -0.005 | Tubastatin A -0.074 | [1] -0.011 | defactinib -0.061 | [2] 0.003 | encorafenib 0.025 | [3] -0.106 | alisertib -0.054 | [4] -0.017 | gefitinib 0.021

HEATR5B (UniProt Q9P2D3)
inactive: alvocidib 0.001 | Tubastatin A 0.015 | [1] 0.02 | defactinib -0.002 | [2] 0.01 | encorafenib 0.013 | [3] -0.009 | alisertib -0.022 | [4] 0.005 | gefitinib 0.007

Pulled one by one from the entries so far, 2 records:
HEATR5B (UniProt Q9P2D3)
inactive: alvocidib 0.001 | Tubastatin A 0.015 | [1] 0.02 | defactinib -0.002 | [2] 0.01 | encorafenib 0.013 | [3] -0.009 | alisertib -0.022 | [4] 0.005 | gefitinib 0.007

GRB2 (UniProt P62993)
inactive: alvocidib 0.006 | Tubastatin A -0.002 | [1] -0.013 | defactinib 0.006 | [2] 0.012 | encorafenib -0.003 | [3] -0.049 | alisertib 0.015 | [4] -0.004 | gefitinib 0.008

More records:

GRB10 (UniProt Q13322)
inactive: alvocidib -0.061 | Tubastatin A -0.226 | [1] 0.015 | defactinib 0.003 | [2] 0.02 | encorafenib 0.065 | [3] 0.01 | alisertib 0 | [4] -0.02 | gefitinib -0.043

GTF2F2 (UniProt P13984)
inactive: alvocidib 0 | Tubastatin A 0.046 | [1] 0.007 | defactinib -0.006 | [2] 0.059 | encorafenib 0.014 | [3] -0.039 | alisertib 0.015 | [4] 0.011 | gefitinib -0.017

GUK1 isoform 2 (UniProt Q16774)
inactive: alvocidib -0.026 | Tubastatin A 0.018 | [1] 0.039 | defactinib 0.024 | [2] -0.055 | encorafenib 0.013 | [3] 0.004 | alisertib 0.033 | [4] -0.005 | gefitinib -0.042

GUCD1 isoform 3 (UniProt Q96NT3)
inactive: Tubastatin A -0.018 | [1] -0.024 | [2] -0.096 | [4] 0.007

GRAMD1A (UniProt Q96CP6)
inactive: [1] 0.157
